Patent US20260070994A1 (PASSION TECHNOLOGY ZHUHAI PARTNERSHIP LIMITED PARTNERSHIP, published 2026)
Substitutions are numbered along the chain they refer to. No constants are given. Whether binding was seen depends on the method and setting. Some entries that bind do so weakly or less than the wild type.

The chains behind the UniProt entries cited, without tags or fusion partners. Residues count along the entry.
UniProt P01589, residues 22-240: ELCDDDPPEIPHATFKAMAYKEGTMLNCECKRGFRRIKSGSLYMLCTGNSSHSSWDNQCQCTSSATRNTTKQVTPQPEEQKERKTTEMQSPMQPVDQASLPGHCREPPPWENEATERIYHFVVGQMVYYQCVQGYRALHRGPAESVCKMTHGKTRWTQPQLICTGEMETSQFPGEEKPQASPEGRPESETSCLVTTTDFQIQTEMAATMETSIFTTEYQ

B1: A05 (VHH)
VHH: QVQLVESGGGLAQPGGSLRLSCAASGFTFSIYAMSWARQAPGKGLEWVSGIYSDSSYTYYADSVKGRFTISRDNAKNTLYLQMNSLKPEDTALYYCLKARGSGSYYPFDDYRGQGTQVTVSS
B2: clone A07 (VHH)
VHH: EVQLVESGGGLAQPGGSLRLSCAVSGFTLDYYAIGWFRQAPGKEREGVSCISGSDGRTAYTDSVKGRFTISKDNAKNTVYLQMNSLKPEDTAVYYCAADPGYYCAGEVRYAGSLYDYWGQGTQVTVSS
notes: Recombinant antibody from a eukaryotic expression vector (293F); also called A-A7; A-A07-VHH
B3: A11 (VHH)
VHH: DVQLVESGGGLVQPGGSLRLSCAASGFTFSSYAMSWYRQAPGKERELVAYITTSPGYTTYTDSVKGRFTISRDNAKNTVYLQMNSLKPDDTAVYYCNAWRGAPRGDYWGQGTQVTVSS
B4: B04 (VHH)
VHH: QVQLVESGGGLVQPGGSLRLSCATSGFTLDYYAIGWFRQAPGKEREGVSCISSSDGTTAYADSVKGRFTISTDNARNTVYLQMNSLKPEDTAVYYCAADLGYYCADNVRYAGSLYDYWGQGTQVTVSS
B5: D04 (VHH)
VHH: QVQLVESGGGLVQPGGSLRLSCAASGFTFSSSAVSWARLTPGKRLEWVSAIASDGSTYYADSMQGRFTISRDNAKNTVYLQMNSLKPEDTAVYYCAIPRDGLVPVFGIDYWGQGTQVTVSS
B6: E08 (VHH)
VHH: AVQLVESGGGLVQPGGSLRLSCAASGFTFSSYPMGWYRQAPGEECELVAGITSAGGSTNYADSVKGRFTISRDNAKNTVYLQMNSLKPEDTAVYYCNTDPRYYTDSRGPCSWGQGTQVTVSS
B7: G10 (VHH)
VHH: DVQLVESGGGLAQPGGSLRLSCAASGFTFSNYAMNWLRQAPGKGLEWVSGIYSDSSGTYYADSVKGRFTISRDNAKNTLYLQMNSLKPEDTALYYCAKASNSGSYYPWDDDWGQGTQVTVSA
B8: D01 (VHH)
VHH: QVQLVESGGGLAQPGGSLRLSCAASGFTFSNFAVSWARQVAGEGFEWVSGVYSDGDTYYADSVKDRFIISRDNAKNTLYLQMNSLKPEDTALYYCGAARGRLCSSIMTCDYWGQGTQVTVSS
B9: A07-HM5 (VHH)
VHH: B2 VHH with A12V, E44G, R45L, T61A, K87R, P88A, Q123L
B10: A07-HM6 (VHH)
VHH: B2 VHH with V5L, A12V, E44G, R45L, T61G, K87R, P88A, Q123L

What was measured:
[1] = target: CD25-His recombinant protein (human) (UniProt P01589); experiment: ELISA, CD25-His coated
[2] = target: CD25-His recombinant protein (human) (UniProt P01589); experiment: BLI binding kinetics
[3] = target: CD25-His recombinant protein (human) (UniProt P01589); experiment: ELISA, gradient dilution

Binder	binding [1]	binding [2]	binding [3]
B1	binds		
B2	binds	binds	
B3	binds		
B4	binds		
B5	binds		
B6	binds		
B7	binds		
B8	binds		
B9		binds	binds
B10			binds
